The record followed here is US20260137802A1 (CRISPR THERAPEUTICS, published 2026).

Amino acid sequences for entries named in this document (tags omitted). A change or cut given only in a name is not applied to a line headed by its entry. Residues count along the entry.
UniProt P10721: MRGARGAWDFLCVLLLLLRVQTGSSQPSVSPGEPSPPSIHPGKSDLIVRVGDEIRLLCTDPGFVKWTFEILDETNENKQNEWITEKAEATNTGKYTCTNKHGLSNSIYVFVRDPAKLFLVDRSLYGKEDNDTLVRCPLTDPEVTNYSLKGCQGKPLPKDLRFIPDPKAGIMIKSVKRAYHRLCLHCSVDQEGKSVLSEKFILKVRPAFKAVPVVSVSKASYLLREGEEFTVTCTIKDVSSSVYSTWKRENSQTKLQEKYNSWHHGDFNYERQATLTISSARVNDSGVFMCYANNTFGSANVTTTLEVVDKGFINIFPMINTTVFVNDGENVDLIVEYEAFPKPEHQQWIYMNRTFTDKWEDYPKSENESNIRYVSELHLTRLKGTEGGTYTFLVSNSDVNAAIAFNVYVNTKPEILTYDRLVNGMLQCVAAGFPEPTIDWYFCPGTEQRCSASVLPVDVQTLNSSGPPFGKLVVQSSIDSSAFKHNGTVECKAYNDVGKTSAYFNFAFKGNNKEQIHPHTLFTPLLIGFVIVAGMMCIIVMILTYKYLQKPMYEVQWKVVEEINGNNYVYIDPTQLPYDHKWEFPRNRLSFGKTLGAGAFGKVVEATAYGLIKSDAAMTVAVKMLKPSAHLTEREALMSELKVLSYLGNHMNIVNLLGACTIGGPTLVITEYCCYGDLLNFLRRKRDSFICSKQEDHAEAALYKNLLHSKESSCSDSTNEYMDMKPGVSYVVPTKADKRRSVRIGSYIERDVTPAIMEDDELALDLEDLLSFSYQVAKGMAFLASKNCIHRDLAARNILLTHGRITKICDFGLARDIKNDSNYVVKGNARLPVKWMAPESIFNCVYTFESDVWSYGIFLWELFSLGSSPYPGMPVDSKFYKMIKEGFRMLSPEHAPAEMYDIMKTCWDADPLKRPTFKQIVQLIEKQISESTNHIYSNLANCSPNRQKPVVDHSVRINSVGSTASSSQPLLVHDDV
human CD117 on cells (SKMEL-3 cells, CD34+ HSC): residues 26-976 of P10721

Assay [1] deals with T1, truncated CD117 ectodomain, Domains 1-2 (UniProt P10721 26-208, limits assumed, biotinylated).
T1 construct: domain: Domains 1-2; not shown: AviTag
Description: BLI, truncated ectodomain on SA biosensor. As for the experimental part: (§1) To identify the approximate binding epitopes of the VHH antibodies, truncated ectodomains were expressed as fusion polypeptides with an AviTag. Additionally, biotin is added to the protein during expression to allow capture of the material onto Streptavidin-coated (SA) biosensors. SA biosensors (Sartorius) were incubated with one of the truncated ectodomains. Full length CD117 ectodomain was used as a control. […] Except for P29 and P37, all others bind Domains 1-2 and Domains 1-3. Except for P37, all others bind Domains 1-4.
On the technique in general: Biolayer interferometry detects binding as a change in optical thickness at a sensor tip.

For assay [2], the target named is T2, truncated CD117 ectodomain, Domains 1-3 (UniProt P10721 26-311, limits assumed, biotinylated).
T2 construct: domain: Domains 1-3; not shown: AviTag
Kind of assay: BLI, truncated ectodomain on SA biosensor. The protocol:
as §1

For assay [3], the target named is T3, truncated CD117 ectodomain, Domains 1-4 (UniProt P10721 26-410, limits assumed, biotinylated).
T3 construct: domain: Domains 1-4; not shown: AviTag
Kind of assay: BLI, truncated ectodomain on SA biosensor. As for the experimental part: as §1

Assay [4] has as its target T4, truncated CD117 ectodomain, Domain 1 (UniProt P10721 26-112, limits assumed, biotinylated).
T4 construct: domain: Domain 1; not shown: AviTag
Kind of assay: BLI, truncated ectodomain on SA biosensor. The protocol: as §1

The target in assay [5] is T5, human CD117 ectodomain (human, UniProt P10721 26-524, biotinylated (BirA co-expression) where captured on streptavidin biosensors).
T5 construct: extracellular domain; also called cKIT; full length AviTagged CD117 ectodomain; not shown: C-terminal AviTag or His tag
Description: flow cytometry and Octet. For orientation: In flow cytometry, cells or beads pass a laser one at a time.

For assay [6], the target named is human CD117 on cells (SKMEL-3 cells, CD34+ HSC) (human) (UniProt P10721). Kind of assay: flow cytometry, CD34+ HSC, bivalent Fc.
For assay [7] the target is unchanged. Description: flow cytometry, skMEL-3 cells, bivalent Fc.

Results are given in words; binding and its absence hold for the method and conditions named. Some entries that bind do so weakly or less than the wild type.

B1: P31 (VHH)
VHH: EVQLVESGGGLVRAGGSLRLSCAASGRTFTYDARAWFRQAPGKEREFVAAISWSGGSTYYPNSMKGRFTISRDNAKNTVYLQMNSLKPEDTAVYYCAADESFPAYYSDYALYRYWGQGTLVTVSS
notes: also called P31/P55; anti-CD117 VHH P31
For B1, the binding entry in assay [1], in assay [2] and in assay [3] was “binds” throughout.

B2: P38 (VHH)
VHH: EVQLVESGGGLVQAGGSLRLSCAASGRTSGSYVMGWFRQAPGKEREFVAAISWSAGMTYYADSVKGRFTISRDNAKNTVYLQMNSLKPEDTAVYYCAADQRGVPAYYSDYALYDYWGQGTQVTVSS
notes: also called P38/P72; anti-CD117 VHH P38
For B2, the binding entry in assay [1], in assay [2] and in assay [3] was “binds” throughout.

B3: P10 (VHH)
VHH: QVQLVESGGGLVQAGGSLRLSCVASGRTFSSYAMGWFRQGPGKEREFAAAILSNGLTTYYADSVKGRFTISRDNAKDTVYLQMNSLKPEDTANYYCAAAFTPEFRDGGIWDDASVDYWGQGTQVTVSS
notes: also called P10/P53; anti-CD117 VHH P10
Regarding B3, the binding result in assay [1], in assay [2] and in assay [3] was “binds” in each case.

B4: P12 (VHH)
VHH: QVQLVESGGGLVQAGGSLRLSCTASGDTFSSYSMGWFRQGPGKEREFVGGIRWSGGTTYYADSVKGRFTISRDNAKNTVYLQMNSLKREDTAVYYCAAVRRRWLIWQEEEYDYWGQGTLVTVSS
B4: the binding result in assay [4], in assay [1], in assay [2] and in assay [3] was “binds” each time.

B5: P-0057 (Fc fusion)
chain: QVQLVESGGGLVQAGDSLRLSCAASGRTFSSYAMGWFRQAPGKEREFVASITSSGLVAYYGDSVEARFTISRDNAKNTVYLQMDSLKPEDTAVYYCAARQYVGSGSYYLKKEGGYEYWGPGTQVTVSS
notes: the alignment instead labels 'P35/P57' and 'P32/P56'; also called P57; not shown: Fc fragment
Turning to B5, the binding result in assay [5], in assay [6] and in assay [7] was “binds” throughout.

B6: P32 (VHH)
VHH: QVQLVESGGGLVQAGDSLRLSCAASGRTFSSYAMGWFRQAPGKEREFVASITSSGLVAYYGDSVEARFTISRDNAKNTVYLQMDSLKPEDTAVYYCAARQYVGSGSYYLKKEGGYEYWGPGTQVTVSS
notes: also called anti-CD117 VHH P32
Regarding B6, the binding entry in assay [1], in assay [2] and in assay [3] was “binds” throughout.

B7: P-0056 (Fc fusion)
chain: QVQLVESGGGLVQAGGSLRLSCAASGGTFSIYPVGWFRQAPGKQREFVAAIGWSASGTYYGDSVEGRFTVSRDNARSTVYLRMSSLKPDDTAVYYCAAASGSNWRLGAIDEYDSWGQGTQVTVSS
notes: the alignment instead labels 'P35/P57' and 'P32/P56'; also called P56; not shown: Fc fragment
Regarding B7, the binding entry in assay [5] is given as “binds”.

B8: P35 (VHH)
VHH: QVQLVESGGGLVQAGGSLRLSCAASGGTFSIYPVGWFRQAPGKQREFVAAIGWSASGTYYGDSVEGRFTVSRDNARSTVYLRMSSLKPDDTAVYYCAAASGSNWRLGAIDEYDSWGQGTQVTVSS
notes: also called anti-CD117 VHH P35
On to B8, for which the binding entry in assay [1], in assay [2] and in assay [3] was “binds” each time.

B9: P27 (VHH)
VHH: EVQLVESGGGLVRAGGSLRLSCAASGRTTFSTYWLGWFRQAPGKNREFVAAISWSAGMAYYQDSKGRFTISRDNTKNTAYLQMNSLQPEDTAVYYCAAGRFHPIRVDTALYWAQGTQVTVSS
notes: also called P27/P60; anti-CD117 VHH P27
Consider B9, for which the binding entry in assay [1], in assay [2] and in assay [3] was “binds” in each case.

B10: P29 (VHH)
VHH: QVHLVESGGGLVQAGGSLGLSCAASGHTFSNYAMGWFRQAPGKEREFVAAISWSGGSTLYADSVKGRFTISRDNGENTVYLQMNSLKPEDTAVYYCALDSTGVYGTGYVSSRKGRYEYWGQGTLVTVSS
notes: also called P29/P54; anti-CD117 VHH P29
With B10, in assay [3], the binding entry is “binds”.
